Results are given in words; binding and its absence hold for the method and conditions named. Binding seen in cells or lysates may run through a third protein. Here binding means that the protein was enriched with, or labelled near, the bait; the list need not be complete.
These substances were tested against ZFYVE21-GFP (UniProt Q9BQ24) (assay: affinity purification with mass spectrometry; GFP-Trap agarose pulldown from ZFYVE21-GFP HUVECs treated with vehicle or PRA 25% v/v; trypsin digestion, label-free MS-LC; three preparations).

The chains behind the UniProt entries cited, without tags or fusion partners.
UniProt Q9BQ24: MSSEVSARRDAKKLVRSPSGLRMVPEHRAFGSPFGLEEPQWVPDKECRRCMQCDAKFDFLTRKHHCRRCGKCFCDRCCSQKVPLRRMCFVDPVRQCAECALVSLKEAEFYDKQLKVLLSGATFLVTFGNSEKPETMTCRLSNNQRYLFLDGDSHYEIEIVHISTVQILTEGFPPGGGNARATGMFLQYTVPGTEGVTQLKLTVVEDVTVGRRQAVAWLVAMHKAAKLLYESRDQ
UniProt Q9Y5K8: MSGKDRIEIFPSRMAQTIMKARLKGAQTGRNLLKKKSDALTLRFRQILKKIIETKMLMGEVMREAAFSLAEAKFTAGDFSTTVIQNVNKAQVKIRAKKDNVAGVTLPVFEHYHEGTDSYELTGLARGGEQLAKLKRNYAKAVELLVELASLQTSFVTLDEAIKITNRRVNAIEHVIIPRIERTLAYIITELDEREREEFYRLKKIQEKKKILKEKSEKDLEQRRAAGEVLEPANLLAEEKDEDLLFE
UniProt P20339: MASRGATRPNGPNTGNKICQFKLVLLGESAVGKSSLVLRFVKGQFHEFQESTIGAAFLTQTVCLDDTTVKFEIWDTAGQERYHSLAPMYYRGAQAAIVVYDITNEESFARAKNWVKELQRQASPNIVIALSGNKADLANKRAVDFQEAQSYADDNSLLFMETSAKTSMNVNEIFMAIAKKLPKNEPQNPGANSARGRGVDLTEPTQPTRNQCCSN
UniProt P21281: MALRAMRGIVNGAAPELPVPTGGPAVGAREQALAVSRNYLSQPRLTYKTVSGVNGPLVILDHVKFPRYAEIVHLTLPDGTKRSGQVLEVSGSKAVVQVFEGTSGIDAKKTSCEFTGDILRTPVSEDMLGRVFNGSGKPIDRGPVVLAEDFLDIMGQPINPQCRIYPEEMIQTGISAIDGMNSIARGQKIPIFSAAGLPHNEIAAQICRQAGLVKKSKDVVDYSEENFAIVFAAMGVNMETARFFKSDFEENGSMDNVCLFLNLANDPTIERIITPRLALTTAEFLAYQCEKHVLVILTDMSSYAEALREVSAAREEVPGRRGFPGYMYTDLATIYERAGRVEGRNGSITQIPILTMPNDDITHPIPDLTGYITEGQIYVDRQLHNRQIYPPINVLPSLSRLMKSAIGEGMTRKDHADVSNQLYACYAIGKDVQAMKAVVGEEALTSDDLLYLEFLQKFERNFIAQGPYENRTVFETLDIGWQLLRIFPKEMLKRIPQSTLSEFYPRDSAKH
UniProt P21283: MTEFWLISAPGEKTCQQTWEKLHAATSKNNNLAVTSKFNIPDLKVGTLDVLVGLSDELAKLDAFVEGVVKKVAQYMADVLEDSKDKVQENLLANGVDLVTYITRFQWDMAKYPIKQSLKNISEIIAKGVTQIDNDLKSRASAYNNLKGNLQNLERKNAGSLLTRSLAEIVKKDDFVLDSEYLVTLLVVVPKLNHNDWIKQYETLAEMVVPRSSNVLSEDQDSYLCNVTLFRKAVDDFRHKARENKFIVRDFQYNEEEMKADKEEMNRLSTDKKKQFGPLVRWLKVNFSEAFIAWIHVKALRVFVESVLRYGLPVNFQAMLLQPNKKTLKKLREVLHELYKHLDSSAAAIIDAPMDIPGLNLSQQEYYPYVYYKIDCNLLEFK
UniProt Q9NT62: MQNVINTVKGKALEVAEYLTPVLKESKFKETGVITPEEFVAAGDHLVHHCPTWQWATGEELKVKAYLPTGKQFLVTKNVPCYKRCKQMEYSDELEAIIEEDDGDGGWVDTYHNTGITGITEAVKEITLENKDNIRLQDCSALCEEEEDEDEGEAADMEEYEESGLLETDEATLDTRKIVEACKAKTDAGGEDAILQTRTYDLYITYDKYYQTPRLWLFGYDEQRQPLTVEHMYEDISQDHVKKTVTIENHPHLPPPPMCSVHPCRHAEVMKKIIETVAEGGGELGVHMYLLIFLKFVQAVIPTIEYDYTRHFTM
UniProt Q9UI12: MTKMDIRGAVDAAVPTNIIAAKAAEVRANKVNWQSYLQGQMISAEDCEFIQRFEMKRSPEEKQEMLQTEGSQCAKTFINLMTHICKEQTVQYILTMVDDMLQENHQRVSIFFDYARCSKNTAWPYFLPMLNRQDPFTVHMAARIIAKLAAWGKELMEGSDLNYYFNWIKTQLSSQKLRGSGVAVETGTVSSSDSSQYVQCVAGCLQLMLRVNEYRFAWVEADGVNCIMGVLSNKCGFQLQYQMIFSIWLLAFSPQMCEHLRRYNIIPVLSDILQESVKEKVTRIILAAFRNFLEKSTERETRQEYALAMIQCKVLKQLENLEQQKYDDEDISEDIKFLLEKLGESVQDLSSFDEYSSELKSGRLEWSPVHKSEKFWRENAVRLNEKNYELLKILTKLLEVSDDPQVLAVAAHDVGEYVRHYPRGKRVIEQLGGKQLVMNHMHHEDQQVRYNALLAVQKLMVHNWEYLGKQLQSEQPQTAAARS
UniProt P36543: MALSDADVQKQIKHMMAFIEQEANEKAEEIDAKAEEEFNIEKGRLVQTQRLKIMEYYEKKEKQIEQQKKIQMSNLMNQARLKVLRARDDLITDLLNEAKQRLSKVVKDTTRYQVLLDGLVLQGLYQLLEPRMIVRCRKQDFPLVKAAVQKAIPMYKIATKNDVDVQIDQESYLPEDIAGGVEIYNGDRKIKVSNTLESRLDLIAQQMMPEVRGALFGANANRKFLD
UniProt P51148: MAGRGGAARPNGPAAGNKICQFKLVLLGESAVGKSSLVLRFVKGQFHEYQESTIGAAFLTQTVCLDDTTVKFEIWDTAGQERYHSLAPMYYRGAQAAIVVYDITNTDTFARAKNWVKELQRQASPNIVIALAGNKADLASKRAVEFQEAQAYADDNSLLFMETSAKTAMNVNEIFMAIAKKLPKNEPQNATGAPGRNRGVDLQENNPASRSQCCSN

binding, binds:
ATP6V1D (from UniProt Q9Y5K8 1-247), Rab5A (from UniProt P20339 1-215), ATP6V1B2 (from UniProt P21281 1-511), ATP6V1C1 (from UniProt P21283 1-382), ATG3 (from UniProt Q9NT62 1-314), ATP6V1H (from UniProt Q9UI12 1-483), ATP6V1E1 (from UniProt P36543 1-226), Rab5C (from UniProt P51148 1-216)
